The test system of this assay is HEK293A TEAD-LUC reporter. The assay can be described thus: TEAD-luciferase reporter activity (YAP activation), robust Z score vs plate; higher = stronger YAP/TEAD activation. As to conditions: 24 h. Background: Reporter assays use an easily measured gene product as a stand-in for the process of interest.

Where a name gives a salt, the structure may show the parent alone. The list shows a part of the results. Single values are uncertain here, since repeats match poorly.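 The human kidney-derived cells carry a stably integrated construct of eight TEAD-binding elements driving luciferase, read by luminescence in a drug-repurposing library screen. A compound counts as a hit when its signal is more than five robust Z scores above the plate mean.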

In the case of `C[C@]12CC[C@@H]3c4ccc(OC(=O)N(CCCl)CCCl)cc4CC[C@H]3[C@@H]1CC[C@@H]2O`, the TEAD-luciferase reporter activity is, setting by setting: (compound concentration: 200 nM) inactive: -2.34; (compound concentration: 2 uM) inactive: -1.05; (compound concentration: 10 uM) inactive: -0.804.
Regarding `CCC(C)C1(CC)C(=O)N=C([S-])NC1=O` (stereo unspecified) [Inactin hydrate], the TEAD-luciferase reporter activity (compound concentration: 200 nM) was inactive: -1.98 and the TEAD-luciferase reporter activity (compound concentration: 10 uM) was inactive: 0.0522.
In the case of `COP(=O)(OC)OC=C(Cl)Cl`, the TEAD-luciferase reporter activity runs as follows: (compound concentration: 200 nM) inactive: 2.93; (compound concentration: 2 uM) inactive: 1.22; (compound concentration: 10 uM) inactive: 2.13.
For `CC(C)N(C(=O)CN1C(=O)C(NC(=O)Nc2cccc(C(=O)O)c2)C(=O)N(c2ccccc2)c2ccccc21)c1ccccc1` (stereo unspecified) the same measures were inactive: -1.43, inactive: -0.617 and inactive: 1.6.
Turning to `CC1(C)C(C=C(Cl)Cl)C1C(=O)OCc1cccc(Oc2ccccc2)c1` (stereo unspecified) [permethrin 5%, Foamix], the TEAD-luciferase reporter activity is inactive: 0.384 (compound concentration: 200 nM) and inactive: 0.177 (compound concentration: 10 uM).
In the case of `CC1(C)C(C=C(Cl)Cl)C1C(=O)OCc1cccc(Oc2ccccc2)c1` (stereo unspecified) [permethrin 5%], the TEAD-luciferase reporter activity (compound concentration: 2 uM) was inactive: 0.603.
Consider `C[C@](O)(COc1ccc(C#N)cc1)C(=O)Nc1ccc(C#N)c(C(F)(F)F)c1` [enobosarm], for which the TEAD-luciferase reporter activity (compound concentration: 200 nM) was inactive: -0.165, the TEAD-luciferase reporter activity (compound concentration: 2 uM) was inactive: -0.724 and the TEAD-luciferase reporter activity (compound concentration: 10 uM) is inactive: 3.38.
For `CN1C[C@H]2[C@H]3CC[C@H](C3)[C@@]2(c2ccc(Cl)c(Cl)c2)C1` the same measures were inactive: -1.82, inactive: -1.27 and inactive: 0.752.
For `O=C(C1CCCN1C(=O)C1CC1)N1CCC(N2Cc3ccccc3C2=O)CC1` (stereo unspecified), the TEAD-luciferase reporter activity reads like this: (compound concentration: 200 nM) inactive: -1.08; (compound concentration: 10 uM) inactive: 1.54.
As to `CC(=O)[C@@]1(O)CC[C@H]2[C@@H]3CCC4=CC(=O)CC[C@]4(C)[C@@]3(F)[C@@H](O)C[C@@]21C`, the TEAD-luciferase reporter activity runs as follows: (compound concentration: 200 nM) inactive: -0.339; (compound concentration: 2 uM) inactive: 0.731; (compound concentration: 10 uM) inactive: 3.05.
For `CCCC(C)C1(CC)C(=O)NC(=O)N=C1[O-]` (stereo unspecified) the same measures were inactive: 0.775, inactive: 0.41 and inactive: 1.11.
As to `CCCCCCCCCCCCCC(=O)O[C@H](CCCCCCCCCCC)CC(=O)N[C@H]1[C@H](OC[C@H]2O[C@H](O)[C@H](NC(=O)C[C@H](O)CCCCCCCCCCC)[C@@H](OC(=O)C[C@H](O)CCCCCCCCCCC)[C@@H]2O)O[C@H](CO)[C@@H](OP(=O)(O)O)[C@@H]1OC(=O)C[C@@H](CCCCCCCCCCC)OC(=O)CCCCCCCCCCCCC` [Lipid A monophosphoryl], the TEAD-luciferase reporter activity is inactive: 1.99 (compound concentration: 200 nM) and inactive: -0.521 (compound concentration: 10 uM).
On to `CN1C(=O)N(C)C2(CCN(C(=O)C3Cc4cc(Cl)ccc4N3)CC2)C1=O` (stereo unspecified), for which the TEAD-luciferase reporter activity reads like this: (compound concentration: 200 nM) inactive: -1.27; (compound concentration: 2 uM) inactive: -0.698; (compound concentration: 10 uM) inactive: 1.99.
Consider `O=C1CN=C(c2ccccc2F)c2cc(Cl)ccc2N1` [metabolite DESALKYLFLURAZEPAM], for which the TEAD-luciferase reporter activity was inactive: -0.844 (compound concentration: 200 nM) and inactive: -0.531 (compound concentration: 10 uM).
Turning to `N[C@@H](Cc1ccc(O)cc1)C(=O)N[C@H](CCCCNC=O)C(=O)NCC(=O)N[C@@H](Cc1ccccc1)C(=O)N[C@H]1CCSC1=O` [ociltide], the TEAD-luciferase reporter activity was inactive: 0.437 (compound concentration: 200 nM), inactive: -1.08 (compound concentration: 2 uM) and inactive: 0.437 (compound concentration: 10 uM).
With `O[C@H]1[C@H]2[C@H](O)CCCN2C[C@H]1O` [Tridolgosir], the TEAD-luciferase reporter activity (compound concentration: 2 uM) is inactive: 3.04.
For `O[C@H]1[C@H]2[C@H](O)CCCN2C[C@H]1O`, the TEAD-luciferase reporter activity reads like this: (compound concentration: 200 nM) active: 5.27; (compound concentration: 10 uM) inactive: 1.29.
Take `CCN1C[C@]2(OC(=O)c3ccccc3NC(C)=O)CCC(OC)C34C2CC([C@H]13)[C@@]1(O)CC(OC)C2CC4[C@]1(O)[C@H]2OC` (stereo partly specified) [Allapininum_:_ Lappaconitine]: the TEAD-luciferase reporter activity (compound concentration: 2 uM) was inactive: -0.0961.
In the case of `CCN1C[C@]2(OC(=O)c3ccccc3NC(C)=O)CCC(OC)C34C2CC([C@H]13)[C@@]1(O)CC(OC)C2CC4[C@]1(O)[C@H]2OC` (stereo partly specified) [Lappaconitine], the TEAD-luciferase reporter activity was inactive: 1.23 (compound concentration: 200 nM) and inactive: 4.52 (compound concentration: 10 uM).
Regarding `O=C(NCC1CCOCC1)c1cnc(Nc2ccc(Cl)cc2Cl)nc1C(F)(F)F`, the TEAD-luciferase reporter activity (compound concentration: 2 uM) was inactive: -1.64.
For the compound `CCS(=O)(=O)n1c2c(c3cc(C(=O)N4CCC(C)CC4)ccc31)CN(C1CCOCC1)CC2`, the TEAD-luciferase reporter activity by setting is: (compound concentration: 200 nM) inactive: -2.25; (compound concentration: 2 uM) inactive: 1.02; (compound concentration: 10 uM) inactive: 0.233.
For `C[C@]12CCC3C4CCC(=O)C=C4CCC3C1CC[C@@H]2O` (stereo partly specified) the same measures were inactive: 0.213, inactive: -0.649 and inactive: 1.62.
As to `CCN1CCCC12Cc1ccccc1CN(C(=O)Cc1ccccc1)C2` (stereo unspecified), the TEAD-luciferase reporter activity reads like this: (compound concentration: 200 nM) inactive: 1.97; (compound concentration: 10 uM) active: 6.64.
Turning to `CN(c1nc2ccccc2s1)C1CCN(C[C@H](O)COc2ccc(F)c(F)c2)CC1` [Lubeluzole dihydrochloride], the TEAD-luciferase reporter activity is inactive: -1.03 (compound concentration: 200 nM), inactive: -0.444 (compound concentration: 2 uM) and inactive: 1.22 (compound concentration: 10 uM).
For `COc1ccc(/C=C/C(=O)CC(=O)/C=C/c2ccc(OC)c(OC)c2)cc1OC` [Dimethylcurcumin] the same measures were inactive: -0.725, inactive: -2.38 and inactive: -1.44.
For `CC(N)Cc1ccc(O)cc1` (stereo unspecified) the same measures were inactive: 1.33, inactive: 0.224 and inactive: -0.869.
For `CCOC(=O)C(c1c(O)c2ccccc2oc1=O)c1c(O)c2ccccc2oc1=O` the same measures were inactive: -1.2, inactive: 0.399 and inactive: 1.9.
Take `CC(C)(N)CNC(=O)C[C@H]1CC[C@]2(CC1)OOC1(O2)C2CC3CC(C2)CC1C3` (stereo partly specified): the TEAD-luciferase reporter activity is, setting by setting: (compound concentration: 200 nM) inactive: -0.597; (compound concentration: 2 uM) inactive: -0.263; (compound concentration: 10 uM) inactive: -0.0828.
Regarding `[2H]c1c([2H])c([2H])c(C([2H])([2H])[2H])c([2H])c1[2H]` [Toluene], the TEAD-luciferase reporter activity runs as follows: (compound concentration: 2 uM) inactive: 1.75; (compound concentration: 10 uM) inactive: 1.04.
Turning to `COc1cc([C@@H]2c3cc4c(cc3C[C@H]3COC(=O)[C@@H]32)OCO4)cc(OC)c1OC` [Deoxypicropodophyllin], the TEAD-luciferase reporter activity runs as follows: (compound concentration: 200 nM) inactive: 4.31; (compound concentration: 2 uM) inactive: 3.42; (compound concentration: 10 uM) inactive: 2.09.
Take `C=CCN.ClCC1CO1.O=C(O)O` (stereo unspecified) [sevelamer carbonate]: the TEAD-luciferase reporter activity (compound concentration: 200 nM) is inactive: -0.695, the TEAD-luciferase reporter activity (compound concentration: 2 uM) was inactive: -0.00527 and the TEAD-luciferase reporter activity (compound concentration: 10 uM) was inactive: 0.485.
Turning to `CC(C)(C)C(=O)N1CCCC1C(=O)N1CCC(N2Cc3ccccc3C2=O)CC1` (stereo unspecified), the TEAD-luciferase reporter activity runs as follows: (compound concentration: 200 nM) inactive: -1.53; (compound concentration: 10 uM) inactive: 1.62.
Turning to `CC(C)(C)c1cc(NC(=O)[C@@H]2CCCCN2C(=O)N2CCS(=O)(=O)CC2)no1` [cannabinoid receptor-2 agonists], the TEAD-luciferase reporter activity is, setting by setting: (compound concentration: 200 nM) inactive: 1.79; (compound concentration: 2 uM) inactive: 0.105; (compound concentration: 10 uM) inactive: 2.51.

For the origin of these results see the supplement of paper PMC10735217.
